The target of assay [1] is recombinant human PD-L1 (Sino Biological, Cat#: 10084-H08H) (human) (UniProt Q9NZQ7). In words: ELISA, human PD-L1 coated at 1 µg/ml, full-length IgG. In general terms: An ELISA detects its analyte on a solid surface through an enzyme-linked reagent.
Assay [2] concerns the target cyno PDL1-His (cyno) (UniProt G7PSE7). Nature of the assay: ELISA (FIG. 7).
Assay [3] shares this target. In words: ELISA, PDL1-His coated at 0.5 µg/ml.
For assay [4] the target is unchanged. In words: ELISA (Example 7).

By UniProt entry, the sequences of proteins in these tests, tags left out. Where a name states a change or a piece, a line headed by the entry shows the natural chain unless it says otherwise.
UniProt Q9NZQ7: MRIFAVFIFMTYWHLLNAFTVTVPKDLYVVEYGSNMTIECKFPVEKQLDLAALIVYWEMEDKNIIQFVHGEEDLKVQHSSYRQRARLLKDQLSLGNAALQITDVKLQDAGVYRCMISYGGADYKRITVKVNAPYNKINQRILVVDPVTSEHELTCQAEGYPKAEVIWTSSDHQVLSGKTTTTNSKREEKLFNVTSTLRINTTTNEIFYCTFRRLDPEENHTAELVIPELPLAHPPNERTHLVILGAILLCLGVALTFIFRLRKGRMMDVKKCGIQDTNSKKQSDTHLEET

The source of these data is patent publication US20210309747A1.

These are yes or no findings as the source states them, for the method shown. Some results given as binding are weak or reduced against the parent protein; the word gives no strength.

B1: B15 (antibody, V domains shown)
VH: EVQLLESGGGLVKPGGSLRLSCSASGFTFSVYYMAWIRQAPGEGLEWISYTSNGDGDITYYADSVKDRFTISRDNAKNSLLLQMNSLRDEDTAVYYCVRAARSGYYNDYWGQGTLVTVSA
VL: DIQLTQSPSSLSASVGDRVTMTCRASQFISKYVNWYQQKPGKAPKVLIYGASILETGVPSRFSGSGFGTDFTFTISSLQPEDFATYYCQQTHSTPRGVFGQGTRVEVK
As to B1, the binding entry in assay [1] is given as “binds”.

B2: B12-01 (antibody, V domains shown)
VH: QVQLLESGGGLVQPGGSLRLSCAASGFTFSSYWMSWVRQAPGKGLEWVANIKQDGSEKYYVDSVKGRFTISRDNAKNSLYLQMNSLRAEDTAVYYCARVALWDDAFDIWGQGTMVTVSS
VL: DIQMTQSPSTLSASVGDRVIITCRASRGISSWLAWYQQKPGKAPNLLISKASSLESGVPSRFSGSGSGTDFTLTISSLQPEDFATYYCQQSSSIPLTFGGGTKVEIK
Turning to B2, the binding entry in assay [2], in assay [3] and in assay [4] was “binds” in each case.
